In patent US20120107601A1, “SYSTEMS AND METHODS OF TEMPLATING USING PARTICLES SUCH AS COLLOIDAL PARTICLES” (President and Fellows of Harvard College, priority 2009, published 2012):

Experimental: To ensure that the introduction of the hydrophobic compounds into the template structure would not lead to rearrangement of the particles in the 3D array, some of the templates were sintered prior to the introduction step. Sintering temperatures between 700 and 1200° C. were used to evaluate the conditions needed to form strong interparticle necks without distorting the initial packed structure. Sintering was accomplished under a O2 gas flow of 0.7 L/min (Thermo Scientific Lindberg Blue M Three-Zone Tube Furnace, Cole-Parmer, Vernon Hills, Ill., USA) applying a dwell time period of 2 hours. Introduction of the hydrophobic compounds into the interstices of the packed array of particles was accomplished by first placing the template on a hot plate at a predetermined temperature and afterwards depositing the powdery hydrophobic compound on the top of the heated template. The temperature of the hot plate was adjusted to enable melting of the hydrophobic compound on the template surface. Once in liquid form, the compound was sucked into the interstices of the template structure by capillary forces. […] After fluid introduction, the templates were removed from the hot plate and cooled in air at ambient temperature. The fluid-introduced templates were finally fractured to enable evaluation of the fluid-introduction efficiency in an electron microscope. […]

- visible color change upon melting and infiltration into the composites: no visible color change
SMILES: C(=C\c1ccccc1)/CN1CCN(C(c2ccccc2)c2ccccc2)CC1 [cinnarizine]
